Experimental data as given in publication PMC8522639.
Results are given in words; binding and its absence hold for the method and conditions named. Binding seen in cells or lysates may run through a third protein. Some results given as binding are weak or reduced against the parent protein; the word gives no strength. Where a sequence is shown, tags or fusion partners need not be part of it.

B1: Flag-DRC2 (protein, UniProt Q8VHI7 1-493)
chain: MSKKGKKPKLPKAPLSEEDQLLIFQQKMLADEEAAKKKERLLTQFLKDKLAKEEHNSALNLNKINTQWRTILREVKTRELHQDIEILSQTFERVVDCKDSVIKSLAKDLTEAEEQYAHALRSHLHNIDQLLTLQRRRLGLLEENYNMELEVLTKEFETERKLIIDHHEKEMHYLQDVFMAMEQNYIDSEYESKLEFQSMWDDLKNKNLEEKHFLRLQLENIVEDLWRRFQDALKNYTDATEDRKIAFEYLKVKDEKSSKEIETQMKKIQKLQETIGILKGKIVAHSREGEWQNQCIRNNKELVHVQLRKLKVQRTQARTLSQENLVKLTLESNATLKALKKVVEKGEKILKLAEICRKFETEEEKVLPFYSSVLTPEEQEEAKLQNPEDITEDLAKIMMDYAGMENFWKRYNKVKLEVLSLQHRRLQLLDISSKLREMLKQYLDGISVSDEVLSHLNPLFVVNHRSNLPQLPPPSAQPVYNVIEAAHIASHIL
B2: Flag-DRC3 (protein, UniProt Q9D5E4 1-523)
chain: MSRPYDSMEPKVMDDDMLKAAVGEQGPQEEAGQLAKQEGILFKDVLSLQLDFQNILRIDNLWQFENLKKLQLNNNIIERIEGLTNLIHLVWLDLSFNNIEAIEGLDTLVNLEDLSLSNNRISKVDSLDALVKLQVLSLGNNQISNMMNIIYLRRFPCLRTLSLAGNPVSEAEEYKMFIYAYLSDLVYLDFRRVDEQMREMAKMKHQYSIDELKHREAQLQMKLEEEQAKQEKLEEHKMAFVEHLNGPFLFDSMYSEDVEGNKLSYLPGVRELLEAYKDKFVIICLNIFEYGLNQQEKRKVELDTFNECIQEAILENQDQGKLKVAKFEEKHLLNLNAIREETDLSNIEKKLTECTESIGELFNTLMILEMQLVEQLEETINIFERNITDLVGLFIENVQSLIAQCRDLENHHHEKLLEIAINTLEKILKGEMDEDLPDDVRALFVDKDTIVNAVGASHDIHLLKIDNREDELVTGINSWCAHLVDKIHKDEIMRNRKRVKEINQFVDHMQSELDNLECGDIID
B3: Flag-DRC4 (protein, UniProt Q60779 1-478)
chain: MAPKKKGKKGKAKGTAIVDGVAPEDMTKEQVEEHVARIREELDREREERNYFQLERDKIHTFWEITRRQLEEKKAELRNKDREMEEAEERHQVEIKVYKQKVKHLLYEHQNNLAEVKAEGTVVMKLAQKEHRTQEGALRKDMRVLKVELKEQELANEVVIKNLCLKQAEEITKMRNDFERQVREIEAKYDKKMKMLRDELDLRRKTEIHEVEERKNGQISTLMQRHEEAFTDIKNYYNDITLNNLALINSLKEQMEDMRKKEEHMEREMAEVTLQNRRLADPLQKAKDEMNEMQKRLGNHERDKQILVCTKARLKVAERELKDLKWEHEVLEQRFIKVQQEREELYRKFADAIQEVQQKTGFKNLLLERKLQALNAAVEKREVQFNEVLAASNLDPTALTLVSRKLEDVLESKNTTIKDLQYELARVCKAHNDLLRTYEAKLLAFGIPLDNVGFKPLETAVIGQTLGQGPAGLVGAPT
B4: Flag-DRC5 (protein, UniProt A6H639 1-498)
chain: MQETPSVPSNSSSHSQSVLTIQRQVSALGSSSTGPTSLKTSSTPTPGQLKTKVPNVRRMRRIISEDAEWSLAIVPLLTELCIQHIVKNFQNNPILKQLPLEHQKKVLSNLPPELPLTVTANLIDDENYWHRCCIKRWSVCHVSRHGGSWKRMFFERHLENLLKLFIPGTTDPNVILDLLPLCRNYVRRIHVDQFLPPVRMPTPLQGEEQSDSGSEGEGSEPEKDHYQLQTLVGGLKHLEELDLVYGVKDCGMNFEWNLFLFTYRDCYSLAATIKACHTLKIFKLTRSKVDDDKARILIRSLLDHPALEELDLSHNLIGDRGARAAAKLLSHSRLRVLNLANNQLQAPGAQSLAHALAHNTNLVFLNLRLNCIEDEGGQAIAHALETNKCLSVLHLGGNKLSEPTATLLSQMLTVNTTLVSLNLSCNHIGQDGGKQLLEGISDNKTILEFDLRLSDVSQESEYLIGQVLHANREAARQRTLNPGHFSSPTNNCTENSVV

Biological target: T1, HA-DRC1 (UniProt Q3USS3)
T1 sequence: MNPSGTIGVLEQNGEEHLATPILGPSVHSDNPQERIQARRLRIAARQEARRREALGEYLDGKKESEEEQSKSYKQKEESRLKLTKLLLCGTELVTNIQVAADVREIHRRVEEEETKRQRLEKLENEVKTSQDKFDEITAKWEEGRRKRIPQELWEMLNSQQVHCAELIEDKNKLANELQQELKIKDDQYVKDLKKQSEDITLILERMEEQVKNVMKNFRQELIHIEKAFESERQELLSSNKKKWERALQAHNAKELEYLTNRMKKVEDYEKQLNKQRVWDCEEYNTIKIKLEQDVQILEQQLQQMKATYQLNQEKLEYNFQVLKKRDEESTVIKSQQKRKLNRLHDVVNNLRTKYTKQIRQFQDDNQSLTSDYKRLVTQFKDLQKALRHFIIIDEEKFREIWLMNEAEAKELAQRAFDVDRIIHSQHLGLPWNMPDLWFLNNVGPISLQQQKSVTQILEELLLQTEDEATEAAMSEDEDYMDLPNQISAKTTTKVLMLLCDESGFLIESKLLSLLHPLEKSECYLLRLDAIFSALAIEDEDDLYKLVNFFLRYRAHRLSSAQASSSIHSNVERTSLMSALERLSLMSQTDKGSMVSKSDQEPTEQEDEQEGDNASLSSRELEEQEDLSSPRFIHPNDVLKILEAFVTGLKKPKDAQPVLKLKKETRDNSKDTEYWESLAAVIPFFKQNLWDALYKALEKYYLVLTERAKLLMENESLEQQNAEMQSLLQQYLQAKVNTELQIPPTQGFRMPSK
Experiment: co-IP; HA-DRC1 coexpressed with one Flag-DRC component in HEK293T cells; RIPA lysate, anti-HA-tag antibody overnight at 4°C, Protein G magnetic beads, washed thrice with RIPA buffer; blot for Flag

| Binder | binding |
| --- | --- |
| B1 | binds |
| B2 | binds |
| B3 | binds |
| B4 | binds |
